The record followed here is article PMC11570498.

No constants are given. Whether binding was seen depends on the method and setting. Some results given as binding are weak or reduced against the parent protein; the word gives no strength.

The experiment addresses Chlorella sorokiniana Rubisco large subunit (CsRbcL) (Chlorella sorokiniana UTEX1230 (endogenous in Chlorella cells)) (UniProt W8SUA8). Briefly: cryo-EM structure; 0.5 μM CsRubisco and 16 μM α3–α4 in 200 mM sorbitol, 50 mM HEPES, 50 mM KOAc, 2 mM Mg(OAc)2, 1 mM CaCl2, pH 6.8; D4 map of the holoenzyme and C1 map after symmetry expansion; both purified.

On to “Chlorella sorokiniana Rubisco large subunit (CsRbcL) (from UniProt W8SUA8 1-475)”, for which the binding entry is “binds”.
